Data on 1 substance can be found in US20260034227A1, “AZLACTONE-BASED POLYMERS AS A SCAFFOLD FOR DIVERSE APPLICATIONS IN DRUG AND GENE DELIVERY” (University of Mississippi, priority 2022, published 2026).

This data set has as its system HEK-293 cells. The data set is described as follows: Subcellular colocalization imaging with LysoTracker Green. In kind it is cell-based, human.

Consider “N-(2-hydroxyethyl)-N,N-dimethyl-2-oxo-2-(2-oxo-2H-chromen-3-yl)ethanaminium [DBAC]”, for which the “reduction in LysoTracker colocalization of DBAC compared to TMR and Lysotracker” value turned out to be 25%.
